According to patent publication US4631270A (priority 1985, dated 1986):
Some peptides are written in HELM: one residue between dots, names in brackets for other building blocks, links after the first $.

Assay: general procedure: Boc solid-phase peptide synthesis; benzhydrylamine resin

Q: For “PEPTIDE1{[ac].P.Q.[GlyPsiLeu].A.G.L.R.[am]}$$$$V2.0”, which step yield (purification step, on 55 mg loaded) is on record?
A: Its step yield is 58%.

Q: And the crude yield (whole synthesis)?
A: Its crude yield is 80%.
